PubChem BioAssay AID1259290 | Sanger Institute – 2017
Aim: 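Identify kinases needed for colorectal cancer cell survival, with or without anchor drugs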 (primary screen). Cells: human SNUC1 colorectal cancer cells. Knock-down reagent: siRNA pool against human genes. Challenge: anchor drugs BYL719 1 µM, cetuximab 5 µg/ml or trametinib 10 nM, or DMSO vehicle alone. Detection: 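Cell viability relative to a non-targeting siRNA control, replicate-averaged, as robust z-score for knock-down alone, plus a synergy score for each anchor drug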. Reading the numbers: viability z-score, siRNA alone: higher = more viable cells; low values mean essential gene; viability vs control, siRNA alone: higher = more viable cells. Rule for the call: 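a knock-down without drug scoring a robust z under -3 counts as essential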. Calls: active = essential: knock-down alone cut viability (z below -3); inactive = no clear viability loss with knock-down alone.
Shown is an unselected part of 794 reagents tested. In the full data, 9 (1.1%) got an active call. 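Calls rest on knock-down alone, not drug synergy; synergy above 0.15 was grouped apart and does not affect calls.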 Viability is capped at 1. Further read-outs or replicates are left out here. No sequences are given here. Not given: the amount of reagent, the time to read-out.

RAF1 (Raf-1 proto-oncogene, serine/threonine kinase)
- viability z-score, siRNA alone: 0.734
- viability vs control, siRNA alone: 0.982
- Call: inactive

MYLK4 (myosin light chain kinase family member 4)
- viability z-score, siRNA alone: 0.187
- viability vs control, siRNA alone: 0.932
- Call: inactive

PRKG2 (protein kinase cGMP-dependent 2)
- viability z-score, siRNA alone: -1
- viability vs control, siRNA alone: 0.825
- Call: inactive

LIMK1 (LIM domain kinase 1)
- viability z-score, siRNA alone: -0.275
- viability vs control, siRNA alone: 0.891
- Call: inactive

PRKCG (protein kinase C gamma)
- viability z-score, siRNA alone: 0.936
- viability vs control, siRNA alone: 1
- Call: inactive

FGFR3 (fibroblast growth factor receptor 3)
- viability z-score, siRNA alone: 0.936
- viability vs control, siRNA alone: 1
- Call: inactive

NTRK1 (neurotrophic receptor tyrosine kinase 1)
- viability z-score, siRNA alone: 0.936
- viability vs control, siRNA alone: 1
- Call: inactive

DYRK4 (dual specificity tyrosine phosphorylation regulated kinase 4)
- viability z-score, siRNA alone: -1.29
- viability vs control, siRNA alone: 0.8
- Call: inactive

MYLK3 (myosin light chain kinase 3)
- viability z-score, siRNA alone: -1.59
- viability vs control, siRNA alone: 0.773
- Call: inactive

BPTF (bromodomain PHD finger transcription factor)
- viability z-score, siRNA alone: -0.85
- viability vs control, siRNA alone: 0.839
- Call: inactive

ALPK2 (alpha kinase 2)
- viability z-score, siRNA alone: 0.647
- viability vs control, siRNA alone: 0.974
- Call: inactive

EEF2K (eukaryotic elongation factor 2 kinase)
- viability z-score, siRNA alone: -1.5
- viability vs control, siRNA alone: 0.781
- Call: inactive

NEK9 (NIMA related kinase 9)
- viability z-score, siRNA alone: -0.524
- viability vs control, siRNA alone: 0.868
- Call: inactive

PKN2 (protein kinase N2)
- viability z-score, siRNA alone: -3.11
- viability vs control, siRNA alone: 0.636
- Call: active

DGKQ (diacylglycerol kinase theta)
- viability z-score, siRNA alone: -0.277
- viability vs control, siRNA alone: 0.891
- Call: inactive

CILK1 (ciliogenesis associated kinase 1)
- viability z-score, siRNA alone: 0.724
- viability vs control, siRNA alone: 0.981
- Call: inactive

SKAP1 (src kinase associated phosphoprotein 1)
- viability z-score, siRNA alone: -1.09
- viability vs control, siRNA alone: 0.817
- Call: inactive

CDKL1 (cyclin dependent kinase like 1)
- viability z-score, siRNA alone: 0.213
- viability vs control, siRNA alone: 0.935
- Call: inactive

DGKG (diacylglycerol kinase gamma)
- viability z-score, siRNA alone: 0.936
- viability vs control, siRNA alone: 1
- Call: inactive
